PubChem BioAssay AID1053208 | Peter MacCallum Cancer Centre, 2014
In all, the deposit lists about 17,000 reagents; shown is an unselected part. Over the whole deposit, 788 (4.7%) are marked active. 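Calls rest on z-score classes alone; an extra cut-off of viability at most 70% of control was not applied to them.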 Further read-outs or replicates are left out here.

- Purpose: 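Genes whose silencing cuts survival of bone tumour cells only with doxorubicin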 (primary screen)
- Cell system: mouse osteosarcoma cells, early-passage culture from an engineered mouse model of fibroblastic bone tumour
- Reagent: siRNA pool against mouse genes, 40 nM
- Time to read-out: about 120 h (48 h before drug, then 72 h with drug)
- Challenge: doxorubicin 100 nM for 72 h, roughly 30-40% inhibitory dose
- Detection: 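Luminescent ATP signal taken as viability with or without 100 nM doxorubicin for 72 h; mean of two wells set against non-targeting siRNA and turned into robust z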
- Direction: viability z-score with doxorubicin: higher = more viable cells under doxorubicin; viability z-score without drug: higher = more viable cells with knock-down alone
- Active means: 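a pool counts as active when its viability z-score with doxorubicin is -2 or below and its z-score without drug lies between -2 and 2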

no.	gene	combined z-score class	viability z-score with doxorubicin	viability z-score without drug	activity call
1	Or2w2	no change with or without drug	1.69	1.01	inactive
2	Slc6a14	no change with or without drug	-0.22	1.35	inactive
3	Gprin1	no change with or without drug	0	0.34	inactive
4	Psma5	low cell count with and without drug	-4.95	-5.23	inactive
5	Scfd2	no change with or without drug	-0.45	0.51	inactive
6	Mink1	no change with or without drug	0.67	0.51	inactive

2 neighbouring entries from above, quoted:
no.	gene	combined z-score class	viability z-score with doxorubicin	viability z-score without drug	activity call
4	Psma5	low cell count with and without drug	-4.95	-5.23	inactive
5	Scfd2	no change with or without drug	-0.45	0.51	inactive

The listing continues.
no.	gene	combined z-score class	viability z-score with doxorubicin	viability z-score without drug	activity call
7	Ldb3	no change with or without drug	1.12	0.51	inactive
8	Cdh3	no change with or without drug	1.69	1.18	inactive
9	Cdr1os	high cell count without drug only	0	2.02	inactive
10	Nr2c1	no change with or without drug	0.45	1.01	inactive
11	Nqo2	no change with or without drug	1.35	-0.17	inactive
12	Cap2	no change with or without drug	-1.46	-1.18	inactive
13	Poglut2	no change with or without drug	-1.12	0.51	inactive
14	Lias	no change with or without drug	-0.34	-0.17	inactive
15	Cd19	no change with or without drug	1.35	1.35	inactive
16	Npnt	no change with or without drug	-0.9	-0.51	inactive
17	Gfer	no change with or without drug	0.9	1.18	inactive
18	Unc5d	low cell count with and without drug	-3.71	-2.19	inactive
19	Rassf8	no change with or without drug	0	0.84	inactive
20	Or9q2	no change with or without drug	-0.56	-0.51	inactive
